Measured values from the supplement of paper PMC6411743.
± gives the standard deviation of the averaged measurements. The list shows a part of the results, in another mix than the full data.

The chains behind the UniProt entries cited, without tags or fusion partners. Where a name states a change or a piece, a line headed by the entry shows the natural chain unless it says otherwise.
UniProt Q9UDY8: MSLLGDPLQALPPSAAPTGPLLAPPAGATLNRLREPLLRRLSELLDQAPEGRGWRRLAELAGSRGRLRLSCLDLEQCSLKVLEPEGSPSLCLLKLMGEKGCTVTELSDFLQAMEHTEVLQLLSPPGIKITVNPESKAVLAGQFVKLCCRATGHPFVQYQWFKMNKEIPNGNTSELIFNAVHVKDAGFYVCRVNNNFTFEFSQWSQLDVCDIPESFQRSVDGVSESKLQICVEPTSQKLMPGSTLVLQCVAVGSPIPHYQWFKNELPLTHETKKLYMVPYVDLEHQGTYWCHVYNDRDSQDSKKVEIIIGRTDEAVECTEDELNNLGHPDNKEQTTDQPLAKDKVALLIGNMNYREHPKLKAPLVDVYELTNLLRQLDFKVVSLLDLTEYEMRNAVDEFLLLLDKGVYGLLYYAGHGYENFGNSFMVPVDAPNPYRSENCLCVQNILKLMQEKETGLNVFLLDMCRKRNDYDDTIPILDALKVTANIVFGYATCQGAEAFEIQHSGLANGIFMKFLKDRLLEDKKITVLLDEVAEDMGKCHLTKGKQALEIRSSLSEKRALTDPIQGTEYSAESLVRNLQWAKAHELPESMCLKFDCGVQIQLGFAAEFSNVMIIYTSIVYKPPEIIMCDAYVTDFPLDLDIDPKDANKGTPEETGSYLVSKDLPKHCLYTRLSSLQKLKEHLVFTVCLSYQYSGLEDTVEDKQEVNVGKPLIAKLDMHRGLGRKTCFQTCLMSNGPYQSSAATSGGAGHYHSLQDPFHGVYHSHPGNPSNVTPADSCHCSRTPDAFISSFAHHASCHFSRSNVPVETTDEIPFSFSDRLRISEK
UniProt Q9UBQ7: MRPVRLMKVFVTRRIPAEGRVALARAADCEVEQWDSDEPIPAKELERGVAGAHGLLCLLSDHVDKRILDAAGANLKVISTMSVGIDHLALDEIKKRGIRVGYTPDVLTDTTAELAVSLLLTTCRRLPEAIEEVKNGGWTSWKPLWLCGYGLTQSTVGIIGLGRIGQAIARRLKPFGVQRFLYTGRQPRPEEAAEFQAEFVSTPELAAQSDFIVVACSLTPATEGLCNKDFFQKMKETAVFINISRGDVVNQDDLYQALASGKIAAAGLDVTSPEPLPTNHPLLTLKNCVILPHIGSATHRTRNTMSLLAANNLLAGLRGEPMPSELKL
UniProt Q9UJX6, whole entry: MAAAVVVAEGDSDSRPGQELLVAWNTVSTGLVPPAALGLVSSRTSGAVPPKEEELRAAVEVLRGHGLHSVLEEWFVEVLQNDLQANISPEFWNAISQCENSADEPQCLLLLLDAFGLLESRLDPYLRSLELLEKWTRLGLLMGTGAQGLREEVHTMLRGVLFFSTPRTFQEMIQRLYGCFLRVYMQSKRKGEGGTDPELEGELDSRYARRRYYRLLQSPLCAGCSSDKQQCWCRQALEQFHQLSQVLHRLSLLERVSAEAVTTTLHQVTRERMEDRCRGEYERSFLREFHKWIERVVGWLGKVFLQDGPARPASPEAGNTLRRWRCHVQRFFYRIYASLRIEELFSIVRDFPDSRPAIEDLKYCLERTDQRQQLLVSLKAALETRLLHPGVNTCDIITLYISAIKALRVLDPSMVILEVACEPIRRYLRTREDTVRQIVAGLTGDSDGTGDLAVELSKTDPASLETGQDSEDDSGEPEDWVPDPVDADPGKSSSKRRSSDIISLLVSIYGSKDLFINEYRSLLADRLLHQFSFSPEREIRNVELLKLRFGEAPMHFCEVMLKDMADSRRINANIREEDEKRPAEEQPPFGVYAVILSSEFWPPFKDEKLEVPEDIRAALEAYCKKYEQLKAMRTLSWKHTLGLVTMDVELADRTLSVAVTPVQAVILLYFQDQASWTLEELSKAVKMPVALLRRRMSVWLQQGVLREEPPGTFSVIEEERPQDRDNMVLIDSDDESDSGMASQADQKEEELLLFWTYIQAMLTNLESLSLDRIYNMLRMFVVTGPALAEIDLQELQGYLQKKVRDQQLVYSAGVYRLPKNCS
UniProt Q9UPZ3: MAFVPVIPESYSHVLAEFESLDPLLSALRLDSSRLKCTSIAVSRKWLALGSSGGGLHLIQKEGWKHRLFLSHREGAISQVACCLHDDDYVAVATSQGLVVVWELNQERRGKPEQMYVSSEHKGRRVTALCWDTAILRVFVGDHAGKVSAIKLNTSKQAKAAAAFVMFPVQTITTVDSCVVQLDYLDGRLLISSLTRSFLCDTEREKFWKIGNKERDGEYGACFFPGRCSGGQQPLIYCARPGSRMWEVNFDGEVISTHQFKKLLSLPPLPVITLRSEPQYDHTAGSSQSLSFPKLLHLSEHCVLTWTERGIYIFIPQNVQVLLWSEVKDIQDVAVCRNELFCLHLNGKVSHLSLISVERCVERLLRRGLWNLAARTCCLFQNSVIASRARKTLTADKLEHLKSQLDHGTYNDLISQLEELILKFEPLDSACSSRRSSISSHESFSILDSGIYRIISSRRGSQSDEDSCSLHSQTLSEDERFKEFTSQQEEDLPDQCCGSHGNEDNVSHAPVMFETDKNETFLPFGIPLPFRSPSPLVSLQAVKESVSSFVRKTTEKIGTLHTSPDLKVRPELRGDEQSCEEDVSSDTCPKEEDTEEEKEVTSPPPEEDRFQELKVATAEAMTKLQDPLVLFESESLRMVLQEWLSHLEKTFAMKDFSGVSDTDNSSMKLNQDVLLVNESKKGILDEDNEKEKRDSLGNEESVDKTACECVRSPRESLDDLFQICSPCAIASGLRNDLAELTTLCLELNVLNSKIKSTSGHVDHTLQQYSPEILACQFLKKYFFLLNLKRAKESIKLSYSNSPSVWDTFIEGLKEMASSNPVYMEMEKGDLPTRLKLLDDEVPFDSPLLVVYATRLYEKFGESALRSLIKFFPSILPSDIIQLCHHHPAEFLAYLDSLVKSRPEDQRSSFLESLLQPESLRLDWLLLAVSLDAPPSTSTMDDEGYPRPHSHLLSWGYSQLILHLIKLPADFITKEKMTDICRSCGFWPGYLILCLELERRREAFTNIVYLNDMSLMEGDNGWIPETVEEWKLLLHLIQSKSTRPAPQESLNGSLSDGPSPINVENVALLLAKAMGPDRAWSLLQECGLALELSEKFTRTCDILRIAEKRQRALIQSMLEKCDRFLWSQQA
UniProt Q9UQ13: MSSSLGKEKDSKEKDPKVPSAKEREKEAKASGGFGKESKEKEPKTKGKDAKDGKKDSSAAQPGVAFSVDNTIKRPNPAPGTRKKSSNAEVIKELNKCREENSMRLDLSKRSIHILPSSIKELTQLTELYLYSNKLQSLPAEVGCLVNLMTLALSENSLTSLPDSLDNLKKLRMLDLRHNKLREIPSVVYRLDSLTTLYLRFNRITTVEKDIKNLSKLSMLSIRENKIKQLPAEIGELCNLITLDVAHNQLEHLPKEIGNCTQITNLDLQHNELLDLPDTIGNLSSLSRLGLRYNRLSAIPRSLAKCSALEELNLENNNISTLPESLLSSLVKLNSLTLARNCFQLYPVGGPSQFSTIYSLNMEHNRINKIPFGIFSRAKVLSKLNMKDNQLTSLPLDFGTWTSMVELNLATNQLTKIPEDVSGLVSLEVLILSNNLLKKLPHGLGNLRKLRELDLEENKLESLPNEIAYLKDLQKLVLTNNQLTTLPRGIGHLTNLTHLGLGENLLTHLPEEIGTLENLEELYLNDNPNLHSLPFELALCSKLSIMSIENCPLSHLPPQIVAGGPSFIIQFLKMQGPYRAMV
UniProt Q9UBV2: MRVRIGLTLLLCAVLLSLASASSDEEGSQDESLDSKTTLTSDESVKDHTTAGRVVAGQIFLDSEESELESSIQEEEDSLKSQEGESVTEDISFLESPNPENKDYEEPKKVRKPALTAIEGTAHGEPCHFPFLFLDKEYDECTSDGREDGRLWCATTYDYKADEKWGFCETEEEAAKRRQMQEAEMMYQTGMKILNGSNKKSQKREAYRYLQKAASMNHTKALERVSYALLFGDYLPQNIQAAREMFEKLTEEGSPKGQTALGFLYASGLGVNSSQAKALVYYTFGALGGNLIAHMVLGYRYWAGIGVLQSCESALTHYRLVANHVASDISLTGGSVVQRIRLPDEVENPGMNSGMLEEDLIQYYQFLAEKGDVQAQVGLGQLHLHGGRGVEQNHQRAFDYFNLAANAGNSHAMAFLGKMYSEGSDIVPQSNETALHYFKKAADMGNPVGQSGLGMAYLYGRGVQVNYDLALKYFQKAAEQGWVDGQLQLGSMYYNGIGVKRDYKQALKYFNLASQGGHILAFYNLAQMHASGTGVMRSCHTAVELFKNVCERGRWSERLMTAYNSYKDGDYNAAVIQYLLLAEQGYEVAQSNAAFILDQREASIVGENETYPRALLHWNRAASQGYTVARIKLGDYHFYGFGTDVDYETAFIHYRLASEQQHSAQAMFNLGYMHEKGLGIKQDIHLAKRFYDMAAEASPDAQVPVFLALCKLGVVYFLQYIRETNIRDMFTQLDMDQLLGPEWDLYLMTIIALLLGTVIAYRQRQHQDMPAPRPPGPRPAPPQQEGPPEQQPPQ
UniProt Q9UNZ2: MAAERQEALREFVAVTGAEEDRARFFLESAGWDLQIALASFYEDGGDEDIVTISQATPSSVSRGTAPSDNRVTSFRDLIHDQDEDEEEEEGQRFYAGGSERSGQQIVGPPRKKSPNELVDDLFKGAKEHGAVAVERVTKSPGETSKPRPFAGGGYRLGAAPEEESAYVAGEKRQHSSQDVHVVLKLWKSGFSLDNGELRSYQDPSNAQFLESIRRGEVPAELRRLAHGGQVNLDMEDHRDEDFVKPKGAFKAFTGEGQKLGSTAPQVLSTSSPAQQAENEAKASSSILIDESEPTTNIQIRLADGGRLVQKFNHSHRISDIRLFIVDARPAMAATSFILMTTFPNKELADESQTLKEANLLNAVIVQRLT
UniProt Q9UIJ7: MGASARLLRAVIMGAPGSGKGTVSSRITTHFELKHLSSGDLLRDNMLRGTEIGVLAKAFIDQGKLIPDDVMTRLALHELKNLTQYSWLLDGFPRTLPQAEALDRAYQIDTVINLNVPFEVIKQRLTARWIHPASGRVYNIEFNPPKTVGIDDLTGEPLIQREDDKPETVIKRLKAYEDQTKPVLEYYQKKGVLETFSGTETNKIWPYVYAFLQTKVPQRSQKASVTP
UniProt Q9UNP9: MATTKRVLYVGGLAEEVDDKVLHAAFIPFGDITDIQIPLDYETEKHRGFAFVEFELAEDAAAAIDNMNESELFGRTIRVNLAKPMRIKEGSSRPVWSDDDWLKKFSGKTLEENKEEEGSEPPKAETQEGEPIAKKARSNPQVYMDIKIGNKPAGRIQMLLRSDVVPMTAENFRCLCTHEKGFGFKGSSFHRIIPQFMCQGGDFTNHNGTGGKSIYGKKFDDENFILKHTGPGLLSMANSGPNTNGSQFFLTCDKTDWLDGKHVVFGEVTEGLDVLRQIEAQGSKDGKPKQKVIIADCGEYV
UniProt Q9Y295: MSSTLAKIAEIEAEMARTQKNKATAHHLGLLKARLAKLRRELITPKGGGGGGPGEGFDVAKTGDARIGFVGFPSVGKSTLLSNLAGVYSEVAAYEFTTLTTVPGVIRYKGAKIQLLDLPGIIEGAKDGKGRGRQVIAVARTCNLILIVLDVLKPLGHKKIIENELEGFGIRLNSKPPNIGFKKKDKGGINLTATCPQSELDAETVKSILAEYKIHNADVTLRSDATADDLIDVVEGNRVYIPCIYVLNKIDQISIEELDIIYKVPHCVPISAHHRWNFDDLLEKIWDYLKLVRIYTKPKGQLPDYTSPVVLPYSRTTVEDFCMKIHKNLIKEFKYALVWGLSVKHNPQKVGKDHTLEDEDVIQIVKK
UniProt Q9ULW0, whole entry: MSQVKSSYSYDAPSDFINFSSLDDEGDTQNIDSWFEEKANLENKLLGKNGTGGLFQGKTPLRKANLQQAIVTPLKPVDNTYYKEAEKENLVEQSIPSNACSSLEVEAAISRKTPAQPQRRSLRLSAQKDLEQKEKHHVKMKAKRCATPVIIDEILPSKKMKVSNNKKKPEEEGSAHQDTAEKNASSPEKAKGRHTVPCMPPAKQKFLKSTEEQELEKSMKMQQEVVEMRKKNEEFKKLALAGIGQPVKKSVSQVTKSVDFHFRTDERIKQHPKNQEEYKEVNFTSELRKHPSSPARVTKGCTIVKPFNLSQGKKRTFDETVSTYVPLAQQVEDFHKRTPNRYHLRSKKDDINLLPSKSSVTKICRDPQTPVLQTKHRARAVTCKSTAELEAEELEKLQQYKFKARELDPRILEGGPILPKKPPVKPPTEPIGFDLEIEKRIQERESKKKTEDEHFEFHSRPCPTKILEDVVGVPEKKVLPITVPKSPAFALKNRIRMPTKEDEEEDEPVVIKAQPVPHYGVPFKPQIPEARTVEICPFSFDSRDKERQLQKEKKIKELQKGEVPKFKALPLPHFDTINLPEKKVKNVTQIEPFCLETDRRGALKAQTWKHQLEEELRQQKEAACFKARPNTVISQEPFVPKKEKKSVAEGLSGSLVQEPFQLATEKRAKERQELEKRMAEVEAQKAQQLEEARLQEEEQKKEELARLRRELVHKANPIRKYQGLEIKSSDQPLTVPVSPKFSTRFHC

These targets were tested with Nc1ncnc2c1ncn2[C@@H]1O[C@H](COP(=O)(O)OP(=O)(O)OP(=O)(O)O)[C@@H](O)[C@H]1O [adenosine triphosphate] (assay: NP40-soluble protein abundance relative to vehicle (solubility fold change) (ratio); higher = more soluble protein in presence of ATP). Conditions: concentration: 1mM.
In short: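 Each value is a fold change relative to the detergent-processed vehicle, calculated per replicate from vsn-normalised intensities. Jurkat crude lysate received eight concentrations (0.1 to 10 mM) for 10 min at room temperature and 3 min at 37 °C, then was solubilised in 0.8% NP40 with benzonase (60 min, 4 °C). The ultracentrifuged supernatant was TMT-labelled and run by LC-MS/MS in three independent experiments.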
In the case of UniProt Q9ULH0 and related entries, the NP40-soluble protein abundance is reported as 1.08 ± 0.068.
In the case of UniProt Q9UDY8 and related entries, the NP40-soluble protein abundance is reported as 1.05 ± 0.072.
In the case of UniProt Q9UHC7 and related entries, the NP40-soluble protein abundance is reported as 0.929 ± 0.067.
GRHPR (UniProt Q9UBQ7) showed an NP40-soluble protein abundance of 0.979 ± 0.073.
MINPP1 (UniProt Q9UNW1) gave an NP40-soluble protein abundance of 0.96769 ± 0.00085.
Work on UBQLN2 (UniProt Q9UHD9) yielded an NP40-soluble protein abundance of 0.887 ± 0.11.
In the case of ZHX1 (UniProt Q9UKY1), the NP40-soluble protein abundance is reported as 1.11 ± 0.1.
With UniProt Q9UJX6 and related entries the NP40-soluble protein abundance was 1.04 ± 0.12.
For UniProt Q9UPW0 and related entries, the NP40-soluble protein abundance was 0.912 ± 0.076.
Target SAE1 (UniProt Q9UBE0) has an NP40-soluble protein abundance of 0.988 ± 0.031.

Same assay, conditions: concentration: 2mM
UniProt Q9UJV9 and related entries showed an NP40-soluble protein abundance of 1.41 ± 0.12.
Work on UniProt Q9UBC3 and related entries yielded an NP40-soluble protein abundance of 1.48 ± 0.094.
POLK (UniProt Q9UBT6) gave an NP40-soluble protein abundance of 0.968 ± 0.056.
With UniProt Q9UEE5 the NP40-soluble protein abundance was 1.24 ± 0.093.
CYB5R1 (UniProt Q9UHQ9) showed an NP40-soluble protein abundance of 0.996 ± 0.09.
With MKLN1 (UniProt Q9UL63) the NP40-soluble protein abundance was 0.945 ± 0.024.
For UniProt Q9UQC2 and related entries, the NP40-soluble protein abundance was 0.92 ± 0.064.
In the case of UniProt Q9UPZ3 and related entries, the NP40-soluble protein abundance is reported as 1.032 ± 0.0091.
Target UniProt Q9UQ13 and related entries has an NP40-soluble protein abundance of 0.951 ± 0.056.
UniProt Q9UIG0 and related entries showed an NP40-soluble protein abundance of 1.05 ± 0.014.
In the case of UniProt Q9P287 and related entries, the NP40-soluble protein abundance is reported as 0.989 ± 0.032.
For SEL1L (UniProt Q9UBV2), the NP40-soluble protein abundance was 0.96 ± 0.032.
For UniProt Q9UNS1 and related entries, the NP40-soluble protein abundance was 0.982 ± 0.02.
With UniProt Q9UM21 the NP40-soluble protein abundance was 1.03 ± 0.054.
Target UniProt Q9UGR2 and related entries has an NP40-soluble protein abundance of 1.04 ± 0.02.
With USP24 (UniProt Q9UPU5) the NP40-soluble protein abundance was 0.996 ± 0.048.
Target UniProt Q9UNZ2 and related entries has an NP40-soluble protein abundance of 0.96 ± 0.016.
UniProt Q9UJK0 showed an NP40-soluble protein abundance of 0.9064 ± 0.0012.
With AK3 (UniProt Q9UIJ7) the NP40-soluble protein abundance was 0.933 ± 0.0096.
In the case of PPIE (UniProt Q9UNP9), the NP40-soluble protein abundance is reported as 1.005 ± 0.0045.
UniProt Q9P2N6-3 was tested, and the NP40-soluble protein abundance was 1.06 ± 0.085.
STOML2 (UniProt Q9UJZ1) showed an NP40-soluble protein abundance of 0.946 ± 0.046.
UniProt Q9UQ84 and related entries gave an NP40-soluble protein abundance of 1.065 ± 0.0071.
In the case of DRG1 (UniProt Q9Y295), the NP40-soluble protein abundance is reported as 1 ± 0.032.
With TPX2 (UniProt Q9ULW0) the NP40-soluble protein abundance was 1.2 ± 0.021.
UniProt Q9UJ83 and related entries gave an NP40-soluble protein abundance of 0.99 ± 0.052.
For UniProt Q9UGP4 and related entries, the NP40-soluble protein abundance was 0.955 ± 0.011.
Target UniProt Q9ULH0 and related entries has an NP40-soluble protein abundance of 1.07 ± 0.018.
In the case of UniProt Q9UDY8 and related entries, the NP40-soluble protein abundance is reported as 1.04 ± 0.096.
UniProt Q9UHC7 and related entries gave an NP40-soluble protein abundance of 0.958 ± 0.084.
GRHPR (UniProt Q9UBQ7) showed an NP40-soluble protein abundance of 0.974 ± 0.073.
With MINPP1 (UniProt Q9UNW1) the NP40-soluble protein abundance was 0.979 ± 0.032.
For UBQLN2 (UniProt Q9UHD9), the NP40-soluble protein abundance was 0.907 ± 0.13.
Work on ZHX1 (UniProt Q9UKY1) yielded an NP40-soluble protein abundance of 1.09 ± 0.036.
With UniProt Q9UJX6 and related entries the NP40-soluble protein abundance was 0.954 ± 0.025.
For UniProt Q9UPW0 and related entries, the NP40-soluble protein abundance was 0.943 ± 0.081.
SAE1 (UniProt Q9UBE0) showed an NP40-soluble protein abundance of 0.991 ± 0.028.
